# The inconclusive results got no clear call from the source; some entries with a clear call stand among them for comparison. Potencies of inconclusive entries are doubtful fits and often do not repeat. Calls of active or inactive are those of the source. Rule for the calls: active = hit-call score of the fitted dose curve at least 0.9, where 1 is the maximum; inconclusive = response in the unintended direction; inactive = score below 0.9.
# The chains behind the UniProt entries cited, without tags or fusion partners.
# UniProt P03372, whole entry, looked up: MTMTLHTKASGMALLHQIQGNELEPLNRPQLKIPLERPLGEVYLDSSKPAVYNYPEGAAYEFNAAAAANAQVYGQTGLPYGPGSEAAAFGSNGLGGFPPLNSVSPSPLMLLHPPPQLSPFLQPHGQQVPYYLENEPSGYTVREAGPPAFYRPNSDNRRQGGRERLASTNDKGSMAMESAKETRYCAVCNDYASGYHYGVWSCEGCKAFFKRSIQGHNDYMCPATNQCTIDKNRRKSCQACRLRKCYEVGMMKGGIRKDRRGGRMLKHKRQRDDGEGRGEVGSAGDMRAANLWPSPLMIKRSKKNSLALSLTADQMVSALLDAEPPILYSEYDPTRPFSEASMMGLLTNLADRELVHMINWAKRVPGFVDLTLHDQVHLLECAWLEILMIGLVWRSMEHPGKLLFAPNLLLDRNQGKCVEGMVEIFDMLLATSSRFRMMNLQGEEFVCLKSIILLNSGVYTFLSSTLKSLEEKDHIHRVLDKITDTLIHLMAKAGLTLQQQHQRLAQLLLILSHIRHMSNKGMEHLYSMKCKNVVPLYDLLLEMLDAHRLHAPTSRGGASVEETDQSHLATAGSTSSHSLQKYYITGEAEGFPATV
# Target: Estrogen receptor (Homo sapiens) (UniProt P03372)
# Assay: ERF_TW_NR_COA_hESR1: Eurofins (ERF) Nuclear Receptor (NR) Functional Coactivator Assay for human Estrogen Receptor alpha (ERa) Agonism
# Procedure: ERF_TW_NR_COA_hESR1 is a biochemical, single-readout assay that uses extracted gene-proteins in a cell-free assay. Measurements were taken 0.16 hours after chemical dosing in a 96-well plate. See ERalpha Human Estrogen NHR Functional Agonist Coactivator Assay, Panlabs.ERF_TW_NR_COA_hESR1 is an assay component calculated from the ERF_TW_NR_COA_hESR1 assay. It is designed to measure FRET using a type of binding reporter as detected by fluorescence intensity of estriol with fluorimetry technology.Data from the assay component ERF_TW_NR_COA_hESR1 was analyzed at the assay endpoint, ERF_TW_NR_COA_hESR1, in the positive analysis fitting direction relative to DMSO as the negative control and baseline of activity. Using a type of binding reporter, gain-of-signal activity can be used to understand changes in binding as they relate to gene ESR1. To generalize the intended target to other relatable targets, this assay endpoint is annotated to the nuclear receptor intended target family, where the subfamily is steroid.
# Test compound and/or vehicle is incubated with the 7 nM estrogen receptor alpha (ERalpha)-LBD and coactivator peptide for 10 minutes at RT. Determination of the amount of complex formed is read spectrofluorimetrically at 520 nm/490 nm. Test compound-induced increase fluorescence by 50 percent or more (>/=50%) relative to the 1 uM Estriol response indicates possible ERalpha receptor agonist activity.
SMILES,AC50,outcome
FC(F)(F)C(F)(F)C(F)(F)C(F)(F)CCI,inconclusive: 50 µM,
OCCC(F)(F)C(F)(F)C(F)(F)C(F)(F)C(F)(F)C(F)(F)F,active: 50.2 µM,
OCCC(F)(F)C(F)(F)C(F)(F)C(F)(F)C(F)(F)C(F)(F)C(F)(F)C(F)(F)F,,inactive
C=CC(=O)OCC(F)(F)C(F)(F)C(F)(F)C(F)(F)C(F)(F)C(F)(F)C(F)(F)C(F)F,active: 37.5 µM,
O=C(O)C(F)(OC(F)(F)C(F)(OC(F)(F)C(F)(F)C(F)(F)F)C(F)(F)F)C(F)(F)F (stereo unspecified),inconclusive: 50 µM,
O=C(O)C(F)(F)C(F)(F)C(F)(F)C(F)(F)C(F)(F)C(F)(F)C(F)(F)C(F)(F)Cl,inconclusive: 50 µM,

# Reference: PubChem BioAssay AID2284377 (EPA ToxCast)
